Data reported in patent US8618077B2, “Compositions and methods for treating fragile X premutation RVGG repeats-mediated toxicity” (Emory University, priority 2011, dated 2013).
For at least one compound, name, drawing or mass did not settle the structure.

Tests used:
[1] = target: T1, cPLA2 (Homo sapiens, UniProt P47712); conditions: cited from earlier work
T1 sequence (P47712 1-749): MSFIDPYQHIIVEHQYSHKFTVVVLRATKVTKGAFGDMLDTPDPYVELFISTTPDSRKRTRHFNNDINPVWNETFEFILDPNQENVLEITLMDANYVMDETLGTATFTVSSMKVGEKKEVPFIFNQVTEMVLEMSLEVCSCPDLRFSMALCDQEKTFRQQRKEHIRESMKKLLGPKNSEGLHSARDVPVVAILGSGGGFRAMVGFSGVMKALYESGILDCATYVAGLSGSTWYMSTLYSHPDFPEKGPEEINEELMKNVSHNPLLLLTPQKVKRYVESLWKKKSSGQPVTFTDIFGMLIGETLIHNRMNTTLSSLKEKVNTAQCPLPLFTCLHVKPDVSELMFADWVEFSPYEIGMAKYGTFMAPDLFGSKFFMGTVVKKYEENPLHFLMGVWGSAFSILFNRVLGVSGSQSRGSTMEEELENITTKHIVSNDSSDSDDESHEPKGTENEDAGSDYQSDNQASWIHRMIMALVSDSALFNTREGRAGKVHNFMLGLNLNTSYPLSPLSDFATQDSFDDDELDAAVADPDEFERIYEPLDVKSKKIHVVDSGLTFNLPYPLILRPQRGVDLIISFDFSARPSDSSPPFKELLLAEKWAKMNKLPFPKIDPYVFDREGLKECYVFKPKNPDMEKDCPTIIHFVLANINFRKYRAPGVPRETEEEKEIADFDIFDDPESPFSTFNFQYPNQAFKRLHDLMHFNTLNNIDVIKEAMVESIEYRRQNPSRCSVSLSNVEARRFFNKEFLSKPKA

[2] = test system: dFmr1 CGG90 mutant flies; test: Locomotion assay (Drosophila Activity Monitor) in flies expressing rCGG90 repeats (UAS-CGG90-EGFP/nervana-GAL4); assay type: in vivo; conditions: flies fed food containing the compound; mean locomotor activity over 7 days
Method: FIG. 2A illustrates the identification of small molecules that can ameliorate the locomotion deficits caused by fragile X premutation rCGG repeats. Nervana-GAL4 driver and UAS-CGG90-EGFP/Cyo were crossed to produce progeny embryos on food supplemented with or without selected compounds as indicated. Adult progeny of genotype UAS-CGG90-EGFP/nervana were selected and 32 female virgins 48 h old were subsequently monitored for locomotor activity continuously for several weeks. The locomotion of 32 flies that were fed with fly food containing the compound each time were simultaneously monitored.
To further validate these compounds, a secondary behavioral assay was developed. In this assay, UAS-CGG90-EGFP transgenic flies were crossed with nervana-GAL4, which could drive the expression of fragile X rCGG repeats in CNS, albeit weakly, allowing us to analyze adult flies for locomotion deficits. The expression of rCGG repeats leads to locomotion defects (FIG. 2A). […] The progeny flies (UAS-CGG90-EGFP/nervana-GAL4) were collected to monitor locomotion. […]
For each individual compound, the locomotion of 32 flies were simultaneously monitored that were fed with fly food containing the compound each time. The data were collected and analyzed for locomotor activity (FIG. 2B). […]

SMILES	cPLA2 activity [1]	concentration of free fatty acids [1]	effect on locomotion deficits caused by fragile X premutation rCGG repeats (in words) [2]
C[N+](C)(C)CCOP(=O)(O)OP(=O)([O-])OC[C@H]1O[C@@H](n2ccc(N)nc2=O)[C@H](O)[C@@H]1O [citicoline, Cytidine 5′diphospho-choline]	inhibits cPLA2 activity	lowers the concentration of free fatty acids in a dose- and time-dependent manner	
C[C@@H]1C[C@H]2[C@@H]3CCC4=CC(=O)C=C[C@]4(C)[C@@]3(F)[C@@H](O)C[C@]2(C)[C@@]1(O)C(=O)CO [dexamethasone]			significant suppression of the locomotion activity deficit
